# Experimental data as given in the supplement of paper PMC8728848.
# The list shows a part of the results.
# Columns and labels:
# Test in all cases: glycan array binding signal (z-score within array); higher = stronger binding
# Conditions in all cases: glycan notation: IUPAC condensed, linker removed
# [1] = target: Gal(a1-3)[Gal(a1-4)]Gal(b1-4)GlcNAc
# Summary of the method: (§1)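 The Consortium for Functional Glycomics database supplied 3228 glycan arrays, of which those lacking an available protein sequence were dropped. The binding signal, a within-array Z-score, was averaged across arrays of the same protein sequence and across linkers. Negative scores can be read as non-binding.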
# [2] = target: Gal(a1-4)Gal(b1-3)GlcNAc(b1-2)Man(a1-3)[Gal(a1-4)Gal(b1-3)GlcNAc(b1-2)Man(a1-6)]Man(b1-4)GlcNAc(b1-4)GlcNAc
# Summary of the method: as §1
# [3] = target: Gal(a1-4)Gal(b1-4)Glc
# Summary of the method: as §1
# [4] = target: Gal(a1-4)Gal(b1-4)GlcNAc
# Summary of the method: as §1
# [5] = target: Gal(a1-4)Gal(b1-4)GlcNAc(b1-2)Man(a1-3)[Gal(a1-4)Gal(b1-4)GlcNAc(b1-2)Man(a1-6)]Man(b1-4)GlcNAc(b1-4)GlcNAc
# Summary of the method: as §1
# [6] = target: Gal(a1-4)Gal(b1-4)GlcNAc(b1-3)Gal(b1-4)Glc
# Summary of the method: as §1
# [7] = target: Gal(a1-4)GlcNAc
# Summary of the method: as §1
# [8] = target: Gal(a1-6)Glc
# Summary of the method: as §1
# [9] = target: Gal(b1-2)Gal
# Summary of the method: as §1
# [10] = target: Gal(b1-3)Gal
# Summary of the method: as §1
# [11] = target: Gal(b1-3)Gal(b1-4)GlcNAc
# Summary of the method: as §1
# [12] = target: Gal(b1-3)GalNAc
# Summary of the method: as §1
# [13] = target: Gal(b1-3)GalNAc(a1-3)[Fuc(a1-2)]Gal(b1-4)Glc
# Summary of the method: as §1
# [14] = target: Gal(b1-3)GalNAc(a1-3)[Fuc(a1-2)]Gal(b1-4)GlcNAc
# Summary of the method: as §1
# [15] = target: Gal(b1-3)GalNAc(b1-3)Gal
# Summary of the method: as §1
# [16] = target: Gal(b1-3)GalNAc(b1-3)Gal(a1-4)Gal(b1-4)Glc
# Summary of the method: as §1
# [17] = target: Gal(b1-3)GalNAc(b1-4)Gal(b1-4)Glc
# Summary of the method: as §1
# [18] = target: Gal(b1-3)GalNAc(b1-4)[Neu5Ac(a2-3)]Gal(b1-4)Glc
# Summary of the method: as §1
# [19] = target: Gal(b1-3)GlcNAc
# Summary of the method: as §1
# [20] = target: Gal(b1-3)GlcNAc(a1-3)Gal(b1-4)GlcNAc
# Summary of the method: as §1
# [21] = target: Gal(b1-3)GlcNAc(a1-6)Gal(b1-4)GlcNAc
# Summary of the method: as §1
# [22] = target: Gal(b1-3)GlcNAc(b1-2)Man
# Summary of the method: as §1
# [23] = target: Gal(b1-3)GlcNAc(b1-2)Man(a1-3)[Gal(b1-3)GlcNAc(b1-2)Man(a1-6)]Man(b1-4)GlcNAc(b1-4)GlcNAc
# Summary of the method: as §1
# [24] = target: Gal(b1-3)GlcNAc(b1-2)Man(a1-3)[Gal(b1-3)GlcNAc(b1-2)Man(a1-6)]Man(b1-4)GlcNAc(b1-4)[Fuc(a1-6)]GlcNAc
# Summary of the method: as §1
# [25] = target: Gal(b1-3)GlcNAc(b1-2)Man(a1-3)[GlcNAc(b1-4)][Gal(b1-3)GlcNAc(b1-2)Man(a1-6)]Man(b1-4)GlcNAc(b1-4)GlcNAc
# Summary of the method: as §1
# [26] = target: Gal(b1-3)GlcNAc(b1-2)[Gal(b1-3)GlcNAc(b1-6)]Man(a1-6)[Gal(b1-3)GlcNAc(b1-2)Man(a1-3)]Man(b1-4)GlcNAc(b1-4)GlcNAc
# Summary of the method: as §1
# [27] = target: Gal(b1-3)GlcNAc(b1-3)Gal(b1-3)GlcNAc
# Summary of the method: as §1
# [28] = target: Gal(b1-3)GlcNAc(b1-3)Gal(b1-4)Glc
# Summary of the method: as §1
# [29] = target: Gal(b1-3)GlcNAc(b1-3)Gal(b1-4)GlcNAc
# Summary of the method: as §1
# [30] = target: Gal(b1-3)GlcNAc(b1-3)Gal(b1-4)GlcNAc(b1-2)Man(a1-3)[Gal(b1-3)GlcNAc(b1-3)Gal(b1-4)GlcNAc(b1-2)Man(a1-6)]Man(b1-4)GlcNAc(b1-4)GlcNAc
# Summary of the method: as §1
# [31] = target: Gal(b1-3)GlcNAc(b1-3)Gal(b1-4)GlcNAc(b1-2)[Gal(b1-3)GlcNAc(b1-3)Gal(b1-4)GlcNAc(b1-6)]Man(a1-6)[Gal(b1-3)GlcNAc(b1-3)Gal(b1-4)GlcNAc(b1-2)Man(a1-3)]Man(b1-4)GlcNAc(b1-4)[Fuc(a1-6)]GlcNAc
# Summary of the method: as §1
# [32] = target: Gal(b1-3)GlcNAc(b1-3)Gal(b1-4)GlcNAc(b1-3)Gal(b1-4)GlcNAc(b1-2)[Gal(b1-3)GlcNAc(b1-3)Gal(b1-4)GlcNAc(b1-3)Gal(b1-4)GlcNAc(b1-6)]Man(a1-6)[Gal(b1-3)GlcNAc(b1-3)Gal(b1-4)GlcNAc(b1-3)Gal(b1-4)GlcNAc(b1-2)Man(a1-3)]Man(b1-4)GlcNAc(b1-4)[Fuc(a1-6)]GlcNAc
# Summary of the method: as §1
# [33] = target: Gal(b1-3)GlcNAc(b1-3)Gal(b1-4)GlcNAc(b1-6)[Gal(b1-3)GlcNAc(b1-3)]Gal(b1-4)Glc
# Summary of the method: as §1
# [34] = target: Gal(b1-3)GlcNAc(b1-3)Gal(b1-4)[Fuc(a1-3)]GlcNAc
# Summary of the method: as §1
# [35] = target: Gal(b1-3)GlcNAc(b1-3)Gal(b1-4)[Fuc(a1-3)]GlcNAc(b1-6)[Gal(b1-3)GlcNAc(b1-3)]Gal(b1-4)Glc
# Summary of the method: as §1
# [36] = target: Gal(b1-3)GlcNAc(b1-3)GalNAc
# Summary of the method: as §1
# [37] = target: Gal(b1-3)GlcNAc(b1-6)Gal(b1-4)GlcNAc
# Summary of the method: as §1
# [38] = target: Gal(b1-3)GlcNAc(b1-6)GalNAc
# Summary of the method: as §1
binder,measurement,setting,value
GS13971A-bth-447-22-447 (Bacteroides thetaiotaomicron) (protein) EDVDNERSKGMFSASQSGFSTIEVYDLGPLNKIDLSIAKAGLEDTGGTVTFSVEQSLLDSLNNADGTSYQLLPPECYTIENATYSVSPGGDRRVTGGSLVYDPHKIYNLCGFDELKYVLPLRVSSTGTPMNSDRTATLYGFIVKEAIVRLASTGGDFVVEGGTTTSPMNLDTEISFENEWDLTTSFATKGADYVDNYNSANSTYYIPLPSDFYTLPDVTIAKGKTTGGSAISLLGETLPPGNYLLPVSLGGLSGQGDASINIDKETVANYFVIKQGGPINRDHWTVTANTEEKTGEVSAAYPHNGQTISLIDGEINTFWHSKWQGGEVAPPYEIILDMGKENSVSQLGLIARQNALTSMNLEIYAGDDGETWNLIGKYFFDGSIKTEQMVPVKACDARWIRIYIPTLGSGSSVGHLAEIYVYGTDK,glycan array binding signal (z-score),[1],3.1
same,glycan array binding signal (z-score),[2],0.513
same,glycan array binding signal (z-score),[3],0.472
same,glycan array binding signal (z-score),[4],-0.575
same,glycan array binding signal (z-score),[5],0.056
same,glycan array binding signal (z-score),[6],-0.254
same,glycan array binding signal (z-score),[7],-0.681
same,glycan array binding signal (z-score),[8],0.631
same,glycan array binding signal (z-score),[9],-1.44
same,glycan array binding signal (z-score),[10],-0.681
same,glycan array binding signal (z-score),[11],-1
same,glycan array binding signal (z-score),[12],0.172
same,glycan array binding signal (z-score),[13],-0.865
same,glycan array binding signal (z-score),[14],0.222
same,glycan array binding signal (z-score),[15],0.246
same,glycan array binding signal (z-score),[16],-0.541
same,glycan array binding signal (z-score),[17],1.41
same,glycan array binding signal (z-score),[18],-0.575
same,glycan array binding signal (z-score),[19],-0.27
same,glycan array binding signal (z-score),[20],-0.741
same,glycan array binding signal (z-score),[21],-0.86
same,glycan array binding signal (z-score),[22],0.612
same,glycan array binding signal (z-score),[23],0.413
same,glycan array binding signal (z-score),[24],-0.123
same,glycan array binding signal (z-score),[25],0.373
same,glycan array binding signal (z-score),[26],1.63
same,glycan array binding signal (z-score),[27],-0.193
same,glycan array binding signal (z-score),[28],-0.948
same,glycan array binding signal (z-score),[29],-0.916
same,glycan array binding signal (z-score),[30],-0.482
same,glycan array binding signal (z-score),[31],0.183
same,glycan array binding signal (z-score),[32],0.652
same,glycan array binding signal (z-score),[33],-0.168
same,glycan array binding signal (z-score),[34],-0.146
same,glycan array binding signal (z-score),[35],-0.071
same,glycan array binding signal (z-score),[36],0.748
same,glycan array binding signal (z-score),[37],-0.921
same,glycan array binding signal (z-score),[38],-0.786

# Another view of part of the listing above.
binder | measurement | setting | value
GS13971A-bth-447-22-447 (Bacteroides thetaiotaomicron) (protein) EDVDNERSKGMFSASQSGFSTIEVYDLGPLNKIDLSIAKAGLEDTGGTVTFSVEQSLLDSLNNADGTSYQLLPPECYTIENATYSVSPGGDRRVTGGSLVYDPHKIYNLCGFDELKYVLPLRVSSTGTPMNSDRTATLYGFIVKEAIVRLASTGGDFVVEGGTTTSPMNLDTEISFENEWDLTTSFATKGADYVDNYNSANSTYYIPLPSDFYTLPDVTIAKGKTTGGSAISLLGETLPPGNYLLPVSLGGLSGQGDASINIDKETVANYFVIKQGGPINRDHWTVTANTEEKTGEVSAAYPHNGQTISLIDGEINTFWHSKWQGGEVAPPYEIILDMGKENSVSQLGLIARQNALTSMNLEIYAGDDGETWNLIGKYFFDGSIKTEQMVPVKACDARWIRIYIPTLGSGSSVGHLAEIYVYGTDK | glycan array binding signal (z-score) | [2] | 0.513
same | glycan array binding signal (z-score) | [15] | 0.246
same | glycan array binding signal (z-score) | [21] | -0.86
same | glycan array binding signal (z-score) | [31] | 0.183
same | glycan array binding signal (z-score) | [33] | -0.168
same | glycan array binding signal (z-score) | [34] | -0.146
same | glycan array binding signal (z-score) | [36] | 0.748
same | glycan array binding signal (z-score) | [38] | -0.786
